Results taken from patent US8507431B2, “Methods for accelerating wound healing by administration of a preadipocyte modulator or an adipocyte modulator” (HealOr Ltd., priority 2003, dated 2013).
At least one compound was matched to its structure with a doubt left.

What was measured:
[1] = test system: Full thickness wounds on the back of C57BL mice; experiment: Wound healing assay, full thickness incision wounds in mice; format: in vivo
Method: […] […] Wound biopsies were sampled, processed and analyzed morphologically and/or histochemically and/or immunohistochemically for various wound healing parameters, i.e., wound contraction, adipocytes migration and differentiation, epidermal migration, and epidermal closure.
The wound area was measured and compared to untreated control wounds; and wound contraction was calculated as the percent reduction of the wound area.
Wound biopsies were fixed in 4% paraformaldehyde then dehydrated in increasing concentrations of ethanol (50-100%). The dehydrated preparations were immersed first in xylene, then paraffin and xylene 1:1 solution, then in pure melted paraffin (60° C.). The paraffin blocks were then sectioned by a microtome and the sections were mounted on Super Frost^+™ slides.
Paraffin embedded wound-section slides were incubated at 60° C. for 60 minutes and were de-parafinated by washing the slides twice with toluene (100%) for 10 minutes, then rehydrated in decreasing concentration of ethanol (100-50%) for 5 minutes each. The slides were stained with hematoxylin (ready to use solution) for 10 minutes, rinsed with water, stained with eosin (0.5% in DDW) for 5 minutes, and then washed with 70% ethanol by 2 quick immersions. Thereafter, the slides were dehydrated by washing once with 95% ethanol for 2 minutes, twice with 100% ethanol for 5 minutes, and twice with xylene (100%) for 10 minutes, then mounted with entellan (MERCK Darmstadt Germany).
Paraffin embedded wound-section slides were de-parafinated as described for H&E staining above and incubated in blocking solution (5% BSA and 0.5% Tween 20™ in PBS) for 1 hour. […]
The effect of inhibiting or enhancing the activity of PPARγ using PPARγ antogonist and agonist, respectively, on wound healing was also evaluated in vivo. […]
The effect of adipsin (complementing Factor D, which is secreted from adipocytes) on wound healing was evaluated in vivo. […] The mice were sacrificed 6 days after wounding and the wounds were then analyzed. […]

primary keratinocytes = experiment: Keratinocytes migration (wound scratch) assay in vitro; format: cell-based, murine; conditions: scratch with 200 μm tip, Day 2 (48 hours); GW9662 2 μM, troglitazone 100 μM
Method: Primary keratinocytes were isolated from newborn skin as described in reference 18. Keratinocytes were cultured in Eagle's Minimal Essential Medium (EMEM) containing 8% Chelex (Chelex-100, BioRad) treated fetal bovine serum. To maintain a proliferative basal cell phenotype, the final Ca^2+ concentration was adjusted to 0.05 mM. Experiments were performed five to seven days after plating.
Primary mouse keratinocytes were untreated or treated with, PPARγ antagonist GW9662 (μM) or PPARγ agonist troglitazone (μM). Wound Scratch Assay was performed 24 hours following treatment, and representative fields were photographed immediately after the wounding (Day 0) and 48 hours later (Day 2). The average of wound closure represented as percentage in comparison to the initial width of the wound scratch (% of wound closure).
The effect of inhibiting or enhancing the activity of peroxisome proliferators-activated receptor gamma (PPARγ) on keratinocytes migration was evaluated utilizing the in vitro migration assay. Thus, primary keratinocytes were isolated and plated on 5 ml non-coated dishes until confluence in low Ca^2+ medium, and an artificial crossover scratch was formed in each dish with a 200 μm tip. Cells were either non-treated (control) or treated daily with PPARγ modulators. […]

Cc1c(C)c2c(c(C)c1O)CCC(C)(COc1ccc(CC3SC(=O)NC3=O)cc1)O2 (stereo not shown) [troglitazone]
wound contraction vs PBS control ([1]; topical daily for 6 days, GW9662 2 μM, adipsin 1 μM, troglitazone 100 μM): inhibited wound contraction | wound area compared with the buffer control (morphological analysis) ([1]; topical daily for six days, adipsin 1 μM, GW9662 2 μM, insulin 10 nM, troglitazone 100 μM, troglitazone 100 μM + insulin 10 nM): substantially larger | effect on insulin-induced wound healing ([1]; troglitazone 100 μM + insulin 10 nM, topical daily for 6 days): impaired insulin-induced wound healing | keratinocytes migration in vitro vs untreated control (primary keratinocytes): inhibited keratinocytes migration
